These are yes or no findings as the source states them, for the method shown. In cells and extracts the contact can be indirect. Some binding calls cover weakened binding; strength is not graded here. Where a sequence is shown, tags or fusion partners need not be part of it.
T1: wild-type Ocr with C-terminal Strep-tag II (bacteriophage T7) (UniProt P03775)
T1 sequence: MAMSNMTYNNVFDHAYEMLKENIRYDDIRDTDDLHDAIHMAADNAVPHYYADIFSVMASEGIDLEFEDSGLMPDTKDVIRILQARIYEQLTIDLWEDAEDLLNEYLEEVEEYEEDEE


Molecular target: T1, wild-type Ocr with C-terminal Strep-tag II (bacteriophage T7)
Assay: pull-down; Strep-tagged protein and candidate partner produced in E. coli BW25113 from compatible plasmids (BREX- or BREX+ cells); clarified lysate on a StrepTrap HP column, washed with buffer A (150 mM NaCl, 1 mM EDTA, 100 mM Tris-HCl pH 8.0), eluted with desthiobiotin; SDS-PAGE, bands identified by MALDI-TOF mass spectrometry

Row | binding | Binder
1 | binds | EcoKI S subunit (protein, UniProt P05719 1-464) MSAGKLPEGWVIAPVSTVTTLIRGVTYKKEQAINYLKDDYLPLIRANNIQNGKFDTTDLVFVPKNLVKESQKISPEDIVIAMSSGSKSVVGKSAHQHLPFECSFGAFCGVLRPEKLIFSGFIAHFTKSSLYRNKISSLSAGANINNIKPASFDLINIPIPPLAEQKIIAEKLDTLLAQVDSTKARFEQIPQILKRFRQAVLGGAVNGKLTEKWRNFEPQHSVFKKLNFESILTELRNGLSSKPNESGVGHPILRISSVRAGHVDQNDIRFLECSESELNRHKLQDGDLLFTRYNGSLEFVGVCGLLKKLQHQNLLYPDKLIRARLTKDALPEYIEIFFSSPSARNAMMNCVKTTSGQKGISGKDIKSQVVLLPPVKEQAEIVRRVEQLFAYADTIEKQVNNALARVNNLTQSILAKAFRGELTAQWRAENPDLISGENSAAALLEKIKAERAASGGKKASRKKS
2 | binds | EcoKI M subunit (protein, UniProt P08957 1-529) MNNNDLVAKLWKLCDNLRDGGVSYQNYVNELASLLFLKMCKETGQEAEYLPEGYRWDDLKSRIGQEQLQFYRKMLVHLGEDDKKLVQAVFHNVSTTITEPKQITALVSNMDSLDWYNGAHGKSRDDFGDMYEGLLQKNANETKSGAGQYFTPRPLIKTIIHLLKPQPREVVQDPAAGTAGFLIEADRYVKSQTNDLDDLDGDTQDFQIHRAFIGLELVPGTRRLALMNCLLHDIEGNLDHGGAIRLGNTLGSDGENLPKAHIVATNPPFGSAAGTNITRTFVHPTSNKQLCFMQHIIETLHPGGRAAVVVPDNVLFEGGKGTDIRRDLMDKCHLHTILRLPTGIFYAQGVKTNVLFFTKGTVANPNQDKNCTDDVWVYDLRTNMPSFGKRTPFTDEHLQPFERVYGEDPHGLSPRTEGEWSFNAEETEVADSEENKNTDQHLATSRWRKFSREWIRTAKSDSLDISWLKDKDSIDADSLPEPDVLAAEAMGELVQALSELDALMRELGASDEADLQRQLLEEAFGGVKE

Reference: PMC7261183
